{"source": "PubChem BioAssay AID652272 (Drosophila RNAi Screening Center, 2013)", "assay": "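Genes whose knock-down decreases or increases Hedgehog reporter output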 (primary screen)", "cells": "Drosophila clone 8 (Cl8) cells", "reagents": "long dsRNA against Drosophila genes", "measured": "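Firefly light from a Hedgehog-responsive ptc promoter reporter and Renilla reference light, both read on a plate reader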", "scale": "firefly Hh reporter signal: higher = more ptc reporter light; Renilla reference signal: higher = more Renilla control light", "rule for the call": "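Called a hit if the two-replicate mean z-score lies below -2 or above +3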", "calls": "active = hit: reporter lowered or raised; inactive = not a hit", "note": "The screen tested about 21,000 reagents; shown is a random part of those that have a named target and a result. Of all reagents, 503 (2.4%) got an active call. 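Raw plate light values, not normalised; calls rest on replicate z-scores that were not deposited; hits include reporter decreases as well as increases.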 Entries without a mark were called inactive. Names joined by + are all predicted targets of the reagent. No sequences are given here. The record does not give: the amount of reagent, the time to read-out."}
{"Target gene": "Ssu72 (Ssu72 CTD phosphatase)", "DRSC id": "DRSC19572", "firefly Hh reporter signal, replicate 1": 78075, "firefly Hh reporter signal, replicate 2": 2.53e5, "Renilla reference signal, replicate 1": 3432, "Renilla reference signal, replicate 2": 12779}
{"Target gene": "CG3342", "DRSC id": "DRSC18304", "firefly Hh reporter signal, replicate 1": 91445, "firefly Hh reporter signal, replicate 2": 72288, "Renilla reference signal, replicate 1": 2208, "Renilla reference signal, replicate 2": 1688}
{"Target gene": "MED16 (Mediator complex subunit 16)", "DRSC id": "DRSC04506", "firefly Hh reporter signal, replicate 1": 1.14e5, "firefly Hh reporter signal, replicate 2": 80803, "Renilla reference signal, replicate 1": 2660, "Renilla reference signal, replicate 2": 6555}
{"Target gene": "Vha36-1 (Vacuolar H[+] ATPase 36kD subunit 1)", "DRSC id": "DRSC07098", "firefly Hh reporter signal, replicate 1": 1.05e5, "firefly Hh reporter signal, replicate 2": 1.16e5, "Renilla reference signal, replicate 1": 4932, "Renilla reference signal, replicate 2": 4213}
{"Target gene": "Cyp6a9 (Cytochrome P450 6a9)", "DRSC id": "DRSC07385", "firefly Hh reporter signal, replicate 1": 1.73e5, "firefly Hh reporter signal, replicate 2": 78860, "Renilla reference signal, replicate 1": 4813, "Renilla reference signal, replicate 2": 7532}
{"Target gene": "Paf-AHalpha (Platelet-activating factor acetylhydrolase alpha)", "DRSC id": "DRSC20267", "firefly Hh reporter signal, replicate 1": 67786, "firefly Hh reporter signal, replicate 2": 1.60e5, "Renilla reference signal, replicate 1": 2433, "Renilla reference signal, replicate 2": 6645}
{"Target gene": "CG13223", "DRSC id": "DRSC06344", "firefly Hh reporter signal, replicate 1": 86752, "firefly Hh reporter signal, replicate 2": 61436, "Renilla reference signal, replicate 1": 2168, "Renilla reference signal, replicate 2": 4752}
{"Target gene": "CG6749", "DRSC id": "DRSC10704", "firefly Hh reporter signal, replicate 1": 32019, "firefly Hh reporter signal, replicate 2": 61737, "firefly Hh reporter signal, replicate 3": 59308, "Renilla reference signal, replicate 1": 5266, "Renilla reference signal, replicate 2": 4024}
{"Target gene": "Sec63 (Secretory 63)", "DRSC id": "DRSC11002", "firefly Hh reporter signal, replicate 1": 62355, "firefly Hh reporter signal, replicate 2": 6.23e5, "firefly Hh reporter signal, replicate 3": 71200, "Renilla reference signal, replicate 1": 8474, "Renilla reference signal, replicate 2": 27741}
{"Target gene": "heix (heixuedian)", "DRSC id": "DRSC03542", "firefly Hh reporter signal, replicate 1": 39964, "firefly Hh reporter signal, replicate 2": 35511, "Renilla reference signal, replicate 1": 2380, "Renilla reference signal, replicate 2": 1692}
{"Target gene": "X11L", "DRSC id": "DRSC19958", "firefly Hh reporter signal, replicate 1": 1.64e5, "firefly Hh reporter signal, replicate 2": 7.30e5, "firefly Hh reporter signal, replicate 3": 1.45e5, "Renilla reference signal, replicate 1": 4112, "Renilla reference signal, replicate 2": 41680}
{"Target gene": "X11L", "DRSC id": "DRSC19959", "firefly Hh reporter signal, replicate 1": 76242, "firefly Hh reporter signal, replicate 2": 2.55e5, "Renilla reference signal, replicate 1": 1832, "Renilla reference signal, replicate 2": 9133}
{"Target gene": "erm (earmuff)", "DRSC id": "DRSC00700", "firefly Hh reporter signal, replicate 1": 1.50e5, "firefly Hh reporter signal, replicate 2": 1.02e5, "Renilla reference signal, replicate 1": 5480, "Renilla reference signal, replicate 2": 4240}
{"Target gene": "cwo (clockwork orange)", "DRSC id": "DRSC17072", "firefly Hh reporter signal, replicate 1": 58672, "firefly Hh reporter signal, replicate 2": 62995, "Renilla reference signal, replicate 1": 2737, "Renilla reference signal, replicate 2": 2402}
{"Target gene": "Pgant2 (Polypeptide N-Acetylgalactosaminyltransferase 2)", "DRSC id": "DRSC00587", "firefly Hh reporter signal, replicate 1": 1.45e5, "firefly Hh reporter signal, replicate 2": 88691, "Renilla reference signal, replicate 1": 2837, "Renilla reference signal, replicate 2": 8428}
{"Target gene": "por (porcupine)", "DRSC id": "DRSC20362", "firefly Hh reporter signal, replicate 1": 1.19e5, "firefly Hh reporter signal, replicate 2": 3.30e5, "Renilla reference signal, replicate 1": 2496, "Renilla reference signal, replicate 2": 12134}
{"Target gene": "eIF4B (eukaryotic translation initiation factor 4B)", "DRSC id": "DRSC20983", "firefly Hh reporter signal, replicate 1": 61146, "firefly Hh reporter signal, replicate 2": 1.94e5, "Renilla reference signal, replicate 1": 896, "Renilla reference signal, replicate 2": 6947}
{"Target gene": "narya", "DRSC id": "DRSC19439", "firefly Hh reporter signal, replicate 1": 1.72e5, "firefly Hh reporter signal, replicate 2": 1.09e5, "Renilla reference signal, replicate 1": 4170, "Renilla reference signal, replicate 2": 2498}
{"Target gene": "CG12935 + Nop10", "DRSC id": "DRSC07025", "firefly Hh reporter signal, replicate 1": 1.16e5, "firefly Hh reporter signal, replicate 2": 73259, "Renilla reference signal, replicate 1": 3335, "Renilla reference signal, replicate 2": 6636}
{"Target gene": "HLH4C (Helix loop helix protein 4C)", "DRSC id": "DRSC18670", "firefly Hh reporter signal, replicate 1": 1.32e5, "firefly Hh reporter signal, replicate 2": 5.91e5, "firefly Hh reporter signal, replicate 3": 4.05e5, "Renilla reference signal, replicate 1": 3761, "Renilla reference signal, replicate 2": 2994}
{"Target gene": "PVRAP (PVR adaptor protein)", "DRSC id": "DRSC09966", "firefly Hh reporter signal, replicate 1": 26224, "firefly Hh reporter signal, replicate 2": 44181, "Renilla reference signal, replicate 1": 2736, "Renilla reference signal, replicate 2": 3013}
{"Target gene": "PVRAP (PVR adaptor protein)", "DRSC id": "DRSC10577", "firefly Hh reporter signal, replicate 1": 40416, "firefly Hh reporter signal, replicate 2": 52269, "Renilla reference signal, replicate 1": 3835, "Renilla reference signal, replicate 2": 3017}
{"Target gene": "CG5805", "DRSC id": "DRSC15878", "firefly Hh reporter signal, replicate 1": 1.36e5, "firefly Hh reporter signal, replicate 2": 87089, "Renilla reference signal, replicate 1": 5602, "Renilla reference signal, replicate 2": 3267}
{"Target gene": "CG7214", "DRSC id": "DRSC03028", "firefly Hh reporter signal, replicate 1": 1.76e5, "firefly Hh reporter signal, replicate 2": 1.20e5, "Renilla reference signal, replicate 1": 6861, "Renilla reference signal, replicate 2": 5334}
{"Target gene": "EDTP (Egg-derived tyrosine phosphatase)", "DRSC id": "DRSC07409", "firefly Hh reporter signal, replicate 1": 72233, "firefly Hh reporter signal, replicate 2": 40487, "Renilla reference signal, replicate 1": 1973, "Renilla reference signal, replicate 2": 2925}
{"Target gene": "Pdxk (Pyridoxal kinase)", "DRSC id": "DRSC10419", "firefly Hh reporter signal, replicate 1": 27238, "firefly Hh reporter signal, replicate 2": 41763, "firefly Hh reporter signal, replicate 3": 55073, "Renilla reference signal, replicate 1": 3701, "Renilla reference signal, replicate 2": 4345}
{"Target gene": "Cyp4d20 (Cytochrome P450 4d20)", "DRSC id": "DRSC08654", "firefly Hh reporter signal, replicate 1": 87703, "firefly Hh reporter signal, replicate 2": 60045, "Renilla reference signal, replicate 1": 2752, "Renilla reference signal, replicate 2": 4220}

2 successive entries from above, for reference:
{"Target gene": "Sec63 (Secretory 63)", "DRSC id": "DRSC11002", "firefly Hh reporter signal, replicate 1": 62355, "firefly Hh reporter signal, replicate 2": 6.23e5, "firefly Hh reporter signal, replicate 3": 71200, "Renilla reference signal, replicate 1": 8474, "Renilla reference signal, replicate 2": 27741}
{"Target gene": "heix (heixuedian)", "DRSC id": "DRSC03542", "firefly Hh reporter signal, replicate 1": 39964, "firefly Hh reporter signal, replicate 2": 35511, "Renilla reference signal, replicate 1": 2380, "Renilla reference signal, replicate 2": 1692}
